This is an account of results in patent publication US6989378B2, “Testosterone derivative” (Akzo Nobel N.V., priority 1998, dated 2006).

The nature of this data set: Relative dissolved potency (RDP): androgenic potency relative to testosterone times solubility relative to testosterone. The conditions noted are these: relative to testosterone = 1.

Consider `C[C@]12CC[C@H]3[C@@H](CCC4=CC(=O)CC[C@@]43C)[C@@H]1CC[C@@H]2O` [testosterone], for which the “RDP in arachis oil” value came to 1 and the “RDP in oleic acid” value is listed as 1.
Consider `CCCCCCCCCCC(=O)O[C@H]1CC[C@H]2[C@@H]3CCC4=CC(=O)CC[C@]4(C)[C@H]3CC[C@]12C` [testosterone undecanoate, (17β)-17-[(1-Oxoundecyl)oxy]androst-4-en-3-one], for which the “RDP in arachis oil” value was found to be 450 and the “RDP in oleic acid” value is recorded as 8–10.
The like results for `C[C@@H]1CC2=CC(=O)CC[C@@H]2[C@H]2CC[C@]3(C)[C@@H](O)CC[C@H]3[C@@H]21` [MENT, (7α,17β)-17-hydroxy-7-methylestr-4-en-3-one] were, in that order, 10 and 6.
For `CCCCCCCCCCC(=O)O[C@H]1CC[C@H]2[C@H]3[C@H](CC[C@]12C)[C@H]1CCC(=O)C=C1C[C@H]3C` [MENT undecanoate, (7α,17β)-7-methyl-17-[(1-oxoundecyl)oxy]estr-4-en-3-one], the “RDP in arachis oil” value came to 20.000 and the “RDP in oleic acid” value is “≧200”.
